From publication PMC12406255 (Journal of Medicinal Chemistry, 2025)
HELM strings list residues between dots; [ac] is acetyl, [am] amide, other brackets name non-standard units. One purity is given for all peptides; the source may state it once.

experiment: general procedure: Fmoc solid-phase peptide synthesis; Rink amide resin (VhTI-pepitem grafts); settings: whole synthesis, 214 nm

Final HPLC purity, >95%:
PEPTIDE1{[ac].E.Q.C.K.V.[Nle].C.Y.A.Q.G.A.E.L.P.E.L.L.R.R.C.L.D.N.C.E.K.[am]}$PEPTIDE1,PEPTIDE1,4:R3-26:R3|PEPTIDE1,PEPTIDE1,8:R3-22:R3$$$V2.0
PEPTIDE1{[ac].E.Q.C.K.V.[Nle].C.Y.Q.G.A.E.L.S.P.E.L.L.R.R.C.L.D.N.C.E.K.[am]}$PEPTIDE1,PEPTIDE1,4:R3-26:R3|PEPTIDE1,PEPTIDE1,8:R3-22:R3$$$V2.0
PEPTIDE1{[ac].E.Q.C.K.V.[Nle].C.Y.E.Q.G.A.L.S.P.E.L.L.R.R.C.L.D.N.C.E.K.[am]}$PEPTIDE1,PEPTIDE1,4:R3-26:R3|PEPTIDE1,PEPTIDE1,8:R3-22:R3$$$V2.0
PEPTIDE1{[ac].E.Q.C.S.V.T.C.E.Q.G.A.E.L.P.S.N.E.E.R.C.L.D.N.C.E.K.[am]}$PEPTIDE1,PEPTIDE1,4:R3-25:R3|PEPTIDE1,PEPTIDE1,8:R3-21:R3$$$V2.0
PEPTIDE1{[ac].E.Q.C.K.V.[Nle].C.Y.A.Q.G.A.E.L.S.P.E.L.L.R.R.C.L.D.N.C.E.K.[am]}$PEPTIDE1,PEPTIDE1,4:R3-27:R3|PEPTIDE1,PEPTIDE1,8:R3-23:R3$$$V2.0
PEPTIDE1{[ac].E.Q.C.K.V.[Nle].C.Y.A.Q.R.H.S.S.P.E.L.L.R.R.C.L.D.N.C.E.K.[am]}$PEPTIDE1,PEPTIDE1,4:R3-26:R3|PEPTIDE1,PEPTIDE1,8:R3-22:R3$$$V2.0
PEPTIDE1{S.V.T.E.Q.G.A.E.L.S.N.E.E.R}$$$$V2.0
PEPTIDE1{[ac].E.Q.C.K.V.[Nle].C.Y.E.Q.G.A.E.L.P.E.L.L.R.R.C.L.D.N.C.E.K.[am]}$PEPTIDE1,PEPTIDE1,4:R3-26:R3|PEPTIDE1,PEPTIDE1,8:R3-22:R3$$$V2.0
